Measured values as given in patent publication CN114230662A.
These are yes or no findings as the source states them, for the method shown. Some binding calls cover weakened binding; strength is not graded here.

Protein sequences, listed by entry. Tags and fused reporters are not part of them. Residues count along the entry.
UniProt Q08722, residues 19-323: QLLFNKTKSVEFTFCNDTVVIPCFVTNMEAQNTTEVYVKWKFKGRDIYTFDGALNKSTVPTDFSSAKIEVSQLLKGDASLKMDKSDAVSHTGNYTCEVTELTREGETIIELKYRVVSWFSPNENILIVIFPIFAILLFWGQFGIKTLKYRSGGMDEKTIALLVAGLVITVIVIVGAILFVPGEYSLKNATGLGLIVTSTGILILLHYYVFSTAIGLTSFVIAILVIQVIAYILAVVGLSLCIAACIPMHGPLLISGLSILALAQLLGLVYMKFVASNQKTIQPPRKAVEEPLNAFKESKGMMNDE

B1: AB12W4 (antibody, human IgG4 S228P, kappa, V domains shown)
VH: QIQLVQSGAEVVKPGASVKISCKASGYTFTDYYINWVKQAPGQRLEWIGWIYPGSGNTKHNQKFQGKATLTVDTSSSTAYMELSSLRSEDTAVYFCARRGTYYYGSSSDGFPYWGQGTLVTVSS
VL: QIVLTQSPATMSASPGERVTISCRASSSVYYMYWYQQKPGQSPRPWIYRTSNLATGVPARFSGSGSGTSYSLTISSMEPEDFATYYCQQYHSYPLTFGQGTKLEIKR
B2: AB12W3 (antibody, human IgG4 S228P, kappa, V domains shown)
VH: EVQLVQSGAEVVKPGATVKISCKASGYSFTDYFMTWMKQSPGKSLEWIGRINPYNGETFYNQKFQGKATLTVDKSSTTAHMELSSLRSEDSAVYYCGRGGTAGTDYWGQGTLLTVSS
VL: DVLLTQSPLSLPVTLGQPASISCRSSQSVVRSNGNTYLEWYLQKPGQSPRLLINKVSRRFSGVPDRFSGSGSGSEFTLKISRVEAEDVGIYYCFQGSHVPYTFGQGTKLEIKR

How the values were obtained:
[1] = target: human CD47 on cells (Raji-luc, CCRF-CEM, Jurkat, CHO/K1-hCD47) (human) (UniProt Q08722); assay: flow cytometry on Raji-luc and Jurkat cells
[2] = target: human CD47 on cells (Raji-luc, CCRF-CEM, Jurkat, CHO/K1-hCD47) (human) (UniProt Q08722); assay: flow cytometry on CHO/K1-hCD47 cells

Binder | binding [1] | binding [2]
B1 | binds | –
B2 | binds | binds
